The record followed here is patent US6420518.

Test [1] deals with T1, IGFBP-1 (UniProt P08833 26-259).
T1 construct: in kinetics immobilised on a CM chip by EDC/NHS; biotinylated in the phage selection
T1 sequence (looked up): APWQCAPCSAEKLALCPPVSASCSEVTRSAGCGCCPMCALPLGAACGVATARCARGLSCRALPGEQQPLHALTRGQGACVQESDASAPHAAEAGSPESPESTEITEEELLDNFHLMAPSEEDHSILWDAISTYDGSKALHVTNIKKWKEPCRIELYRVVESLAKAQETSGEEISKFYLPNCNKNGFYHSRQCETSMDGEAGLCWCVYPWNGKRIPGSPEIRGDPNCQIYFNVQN
As to the kind of experiment: inhibition of IGFBP-1 binding to IGF-I.

The target of test [2] is T1, IGFBP-1. The experiment in a line: monovalent phage display, 5 rounds of selection on biotinylated IGFBP-1 with off-rate selection by IGF.
Test [3] concerns the target T2, IGFBP-1 (UniProt P08833).
T2 sequence (looked up): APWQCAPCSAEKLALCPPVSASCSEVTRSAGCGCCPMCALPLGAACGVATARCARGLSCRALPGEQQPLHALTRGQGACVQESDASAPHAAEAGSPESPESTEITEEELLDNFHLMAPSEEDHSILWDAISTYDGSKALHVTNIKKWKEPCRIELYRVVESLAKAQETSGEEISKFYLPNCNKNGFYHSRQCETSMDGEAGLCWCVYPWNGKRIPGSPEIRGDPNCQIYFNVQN
The experiment in a line: inhibition assays of IGFBP-1 binding to IGF-I.

Test [4] addresses T2, IGFBP-1. The experiment in a line: monovalent phage display, 5 rounds of selection on biotinylated IGFBP-1 with off-rate selection by IGF.
The target in test [5] is T2, IGFBP-1. As to the kind of experiment: BIAcore inhibition assay, 9-10 nM IGFBP-1, immobilized IGF-1. In general terms: SPR reads the build-up and loss of mass on a sensor chip optically.

No constants are given. Whether binding was seen depends on the method and setting. Some binding calls cover weakened binding; strength is not graded here.

B1: bp1-34 (peptide)
peptide: CRAGNLQWLCEKYF
modifications: cyclic: disulfide between Cys-1 and Cys-10
On to B1, for which the binding result with IGFBP-1 [1] is “binds”.

B2: Y0791S (peptide-phage clone) (peptide, not shown: large carriers)
chain: NSLLCRAGPLQWLCEKYFSTY
As to B2, the binding result with IGFBP-1 [2] is given as “binds”.

B3: bp1-30 (peptide)
peptide: CRAGALQWLCEKYF
modifications: cyclic: disulfide between Cys-1 and Cys-10
Turning to B3, the binding entry in the test with IGFBP-1 [1] is reported as “binds”.

B4: bp1-21A (peptide)
peptide: SEVGCRAGPLQWLCEKYFSTY
modifications: cyclic: disulfide between the two Cys (bp1-01 residues Cys-1 and Cys-10)
Turning to B4, the binding entry in the test with IGFBP-1 [3] is reported as “binds”.

B5: Y0791H (peptide-phage clone) (peptide, not shown: large carriers)
chain: QGPDCRAGPLQWLCEKYFSTY
For the molecule B5, the binding result with IGFBP-1 [2] is “binds”.

B6: bp1-31 (peptide)
peptide: CRAGRLQWLCEKYF
modifications: cyclic: disulfide between Cys-1 and Cys-10
For the molecule B6, in the test with IGFBP-1 [1], the binding entry was “binds”.

B7: Y0791A (peptide-phage clone) (peptide, not shown: large carriers)
chain: GQQSCRAGPLQWLCEKYFSTY
Regarding B7, in the test with IGFBP-1 [4], the binding result is “binds”.

B8: bp1-22 (peptide)
peptide: CRAGPLQRLCEKYF
modifications: cyclic: disulfide between Cys-1 and Cys-10
Turning to B8, in the test with IGFBP-1 [1], the binding entry is listed as “binds”.

B9: Y0791T (peptide-phage clone) (peptide, not shown: large carriers)
chain: AQWVCRAGPLQWLCEKYFSTY
As for B9, the binding entry with IGFBP-1 [2] was “binds”.

B10: Y0791K (peptide-phage clone) (peptide, not shown: large carriers)
chain: QASECRAGPLQWLCEKYFSTY
In the case of B10, in the test with IGFBP-1 [2], the binding result is “binds”.

B11: bp1-25 (peptide)
peptide: EARVCRAGPLQWLCEKYFSTY
modifications: cyclic: disulfide between the two Cys (bp1-01 residues Cys-1 and Cys-10)
As to B11, the binding result with IGFBP-1 [5] is recorded as “binds”.

B12: Y0791D (peptide-phage clone) (peptide, not shown: large carriers)
chain: ASSMCRAGPLQWLCEKYFSTY
With B12, in the test with IGFBP-1 [2], the binding result is on record as “binds”.

B13: bp1-24 (peptide)
peptide: CRAGPLQHLCEKYF
modifications: cyclic: disulfide between Cys-1 and Cys-10
Consider B13, for which the binding result with IGFBP-1 [1] is on record as “binds”.

B14: Y0791L (peptide-phage clone) (peptide, not shown: large carriers)
chain: AETLCRAGPLQWLCEKYFSTY
As for B14, the binding entry with IGFBP-1 [2] is on record as “binds”.
